This passage reports binding results from publication PMC9344466.

Chains of the proteins cited; added tags and fusions are not shown.
UniProt Q13263: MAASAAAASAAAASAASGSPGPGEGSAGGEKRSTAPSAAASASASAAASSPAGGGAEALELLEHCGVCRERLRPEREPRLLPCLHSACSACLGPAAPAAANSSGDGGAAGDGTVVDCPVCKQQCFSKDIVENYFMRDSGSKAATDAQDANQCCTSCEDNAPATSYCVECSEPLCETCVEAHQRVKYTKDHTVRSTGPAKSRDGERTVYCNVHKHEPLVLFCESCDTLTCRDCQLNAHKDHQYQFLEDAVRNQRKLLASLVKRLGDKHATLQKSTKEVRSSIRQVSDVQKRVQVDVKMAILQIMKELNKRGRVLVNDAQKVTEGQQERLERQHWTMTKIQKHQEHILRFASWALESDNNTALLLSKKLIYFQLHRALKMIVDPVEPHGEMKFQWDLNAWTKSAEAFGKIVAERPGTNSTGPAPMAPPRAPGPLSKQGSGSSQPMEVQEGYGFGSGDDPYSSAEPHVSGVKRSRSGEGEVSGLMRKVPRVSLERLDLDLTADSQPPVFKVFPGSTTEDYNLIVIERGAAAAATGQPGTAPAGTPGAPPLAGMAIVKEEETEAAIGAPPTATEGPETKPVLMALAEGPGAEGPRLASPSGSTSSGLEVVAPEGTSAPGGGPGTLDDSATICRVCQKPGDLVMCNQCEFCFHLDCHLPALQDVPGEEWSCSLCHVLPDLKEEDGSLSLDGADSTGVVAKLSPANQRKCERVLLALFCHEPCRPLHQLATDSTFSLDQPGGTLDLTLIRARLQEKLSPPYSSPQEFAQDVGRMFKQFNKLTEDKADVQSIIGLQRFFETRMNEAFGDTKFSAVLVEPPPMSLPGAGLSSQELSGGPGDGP

Experiment [1] concerns the target T1, GST-tagged MAGE-C2 MHD domain (residues 140-350) (human) (UniProt Q9UBF1).
T1 sequence: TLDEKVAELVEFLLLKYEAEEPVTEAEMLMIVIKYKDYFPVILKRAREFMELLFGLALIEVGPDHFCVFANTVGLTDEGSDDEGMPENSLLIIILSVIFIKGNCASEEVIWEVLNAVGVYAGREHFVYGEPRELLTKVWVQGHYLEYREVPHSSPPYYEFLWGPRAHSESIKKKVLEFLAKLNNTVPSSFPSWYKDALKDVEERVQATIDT
As to the kind of experiment: pull-down; reverse competition: MDM2 tested for displacing TRIM28 from MAGE-C2 MHD (Supplementary Figure S3).

Experiment [2] addresses T1, GST-tagged MAGE-C2 MHD domain (residues 140-350) (human). As to the kind of experiment: pull-down; competition: MDM2 first bound to GST-MAGE-C2 MHD on GST beads, then TRIM28 added in a gradient; beads immunoblotted with MDM2 antibodies (Figure 4A). For orientation: A western blot detects proteins with antibodies after separation by electrophoresis.

These are yes or no findings as the source states them, for the method shown. Binding seen in cells or lysates may run through a third protein. Some entries that bind do so weakly or less than the wild type. Sequences can lack the tags named with a protein.

As to “TRIM28 (from UniProt Q13263 1-835) (enzyme)”, the binding result in experiment [1] and in experiment [2] was “binds” throughout.
